{"sequences": {"note": "Amino acid sequences for entries named in this document (tags omitted).", "UniProt Q0JBA9, entry or part of it": "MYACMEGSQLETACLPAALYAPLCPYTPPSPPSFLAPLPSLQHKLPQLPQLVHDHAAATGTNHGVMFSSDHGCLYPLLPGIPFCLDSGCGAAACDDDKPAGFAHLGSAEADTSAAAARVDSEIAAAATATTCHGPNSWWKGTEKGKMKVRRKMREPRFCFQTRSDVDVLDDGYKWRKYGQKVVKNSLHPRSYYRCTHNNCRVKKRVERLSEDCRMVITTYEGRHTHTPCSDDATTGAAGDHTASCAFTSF"}, "source": "paper PMC7819943", "about": "“Rice protein-binding microarrays: a tool to detect cis-acting elements near promoter regions in rice”", "note": "Some of the results follow.", "data": [{"target": "OsWRKY34 (Oryza sativa, UniProt Q0JBA9 1-250)", "experiment": "protein-binding microarray (RPBM); PBS, 2% BSA, 51.3 ng/ul salmon testes DNA, 50 uM zinc acetate, 200 nM TF, 25 C, 1 h; high values mean tight binding", "conditions": "protein: recombinant; tags: N-terminal polyhistidine and DsRed monomer fusion (pET32a); label: CyDye5-dUTP incorporated in the synthesized complementary strand; 3' TTTTT single-stranded linker to array surface; dsDNA, one strand shown", "procedure,_shortened": "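Transcription factors were each fused at the N-terminus to a polyhistidine tag plus DsRed and expressed in E. coli BL21-CodonPlus before Ni–NTA purification. Binding to a double-stranded custom Agilent array was carried out with 200 nM protein at 25 °C for 1 h in PBS, 2% BSA, salmon testes DNA and 50 µM zinc acetate. The binding signal is per-feature fluorescence intensity, in arbitrary units, on an Axon 4000B scanner.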", "values": [{"sequence": "ATATATATATATATATATATATATATATATATATATCTGTCGGAGTCACCTAGTGCAG", "binding signal": "8320 fluorescence intensity (a.u.)"}, {"sequence": "AGGGGAGGAGGAGGCGCGGCGGAGGATGCCGGCGAGGAGGCGGAGTCACCTAGTGCAG", "binding signal": "8580 fluorescence intensity (a.u.)"}, {"sequence": "AGCTTTTTTGTAAAATTGTTAAGTATGTGTATCTATGTAGCGGAGTCACCTAGTGCAG", "binding signal": "8500 fluorescence intensity (a.u.)"}, {"sequence": "CTCTCTCTTATCTTCTCTCTTTCACGTCTCTTTCACATGTCGGAGTCACCTAGTGCAG", "binding signal": "9670 fluorescence intensity (a.u.)"}, {"sequence": "TATGGACTTACTCCACTAGCATACTACACCTTATGAGCCACGGAGTCACCTAGTGCAG", "binding signal": "9290 fluorescence intensity (a.u.)"}, {"sequence": "GTCTGGTTTTGCTACTGGTTCGTCACCTCTTCTCGACGCCCGGAGTCACCTAGTGCAG", "binding signal": "13100 fluorescence intensity (a.u.)"}, {"sequence": "CGACGAACTTGACTATTTGCTTCTTTTACTTCTTAATTTACGGAGTCACCTAGTGCAG", "binding signal": "10300 fluorescence intensity (a.u.)"}, {"sequence": "CTGGTATTGTGGTTTTCAAGTACGTAGGCCCTGTTTCTTTCGGAGTCACCTAGTGCAG", "binding signal": "8740 fluorescence intensity (a.u.)"}, {"sequence": "CCTCGGTCTGTTTAGTTCCCAAACAAAATTTTTCATGTTACGGAGTCACCTAGTGCAG", "binding signal": "9960 fluorescence intensity (a.u.)"}, {"sequence": "AGCTTGTCTGCGCATGCCTGTCAGTGTCAGTGAATATTACCGGAGTCACCTAGTGCAG", "binding signal": "8710 fluorescence intensity (a.u.)"}, {"sequence": "GCATCTCTGATACACCAACCCTGCATCCTTTTCCAGCCATCGGAGTCACCTAGTGCAG", "binding signal": "8500 fluorescence intensity (a.u.)"}, {"sequence": "GAAGATGCTGTGCACATTGATACTGGCTGTATCCATTTCTCGGAGTCACCTAGTGCAG", "binding signal": "8040 fluorescence intensity (a.u.)"}, {"sequence": "CGTGTTCTTCTCTGCCGCCATGCTAATACGAACTGATACCCGGAGTCACCTAGTGCAG", "binding signal": "8610 fluorescence intensity (a.u.)"}, {"sequence": "CGAAATTTCAGCATTCCTCGGGGTCCTGCGAGCAAAAAATCGGAGTCACCTAGTGCAG", "binding signal": "8230 fluorescence intensity (a.u.)"}, {"sequence": "CTAGCAGCCCTGTTACTCACACCCACCCAGTCGATTCATGCGGAGTCACCTAGTGCAG", "binding signal": "8990 fluorescence intensity (a.u.)"}, {"sequence": "CAGGAGTTGTGTGTTGTGTTTTTCTAACTTAGGGCGTATACGGAGTCACCTAGTGCAG", "binding signal": "9980 fluorescence intensity (a.u.)"}, {"sequence": "GCTCCGCCTCTGCGAGCTCCGCGTCGTCGTCGCCTGCACCCGGAGTCACCTAGTGCAG", "binding signal": "8890 fluorescence intensity (a.u.)"}, {"sequence": "TCCTCCTATAATTCACGCGCCACCGCTTGCTTGCATTGCACGGAGTCACCTAGTGCAG", "binding signal": "8350 fluorescence intensity (a.u.)"}, {"sequence": "ATTTCGCAGCTTGAACAGGGGAGGGGCGCGGGCGCCGAGCCGGAGTCACCTAGTGCAG", "binding signal": "15000 fluorescence intensity (a.u.)"}, {"sequence": "GTTCATACCATATTATCAAATTTGTTTAATTTTCAGAACTCGGAGTCACCTAGTGCAG", "binding signal": "9040 fluorescence intensity (a.u.)"}, {"sequence": "GGAGATGGGGAGAGGAGGCGGGCGCGGTGGCAGGCGGCGCCGGAGTCACCTAGTGCAG", "binding signal": "9520 fluorescence intensity (a.u.)"}, {"sequence": "TTCGGCCATCTTTTTTCGAACACACAAAAATTTATCATGTCGGAGTCACCTAGTGCAG", "binding signal": "8850 fluorescence intensity (a.u.)"}, {"sequence": "GTGGCTTGAAAGGTCTGTGTGTTCTTGTTTGGGATTGAGGCGGAGTCACCTAGTGCAG", "binding signal": "8440 fluorescence intensity (a.u.)"}, {"sequence": "TGTGGGCCCAATAACTTTTTTATTTTTTATTTTATTGACTCGGAGTCACCTAGTGCAG", "binding signal": "9610 fluorescence intensity (a.u.)"}, {"sequence": "GGTAAAAAATATATGGTTTTTGGGTTTAGGGGTACTTCGTCGGAGTCACCTAGTGCAG", "binding signal": "8710 fluorescence intensity (a.u.)"}, {"sequence": "TCACCTGTTTATGTTTGATCTGGACTATTATTCTCATGTTCGGAGTCACCTAGTGCAG", "binding signal": "10600 fluorescence intensity (a.u.)"}, {"sequence": "CTCTTTTGTTTTTAGGACTTATATGTGCTGCTTGTCAATGCGGAGTCACCTAGTGCAG", "binding signal": "8410 fluorescence intensity (a.u.)"}, {"sequence": "GGGTGGGAGTGGGATACAGTCAAGACTCCTTCAATAATCTCGGAGTCACCTAGTGCAG", "binding signal": "8430 fluorescence intensity (a.u.)"}, {"sequence": "GACACTGTTGACTTTTTAGCACATATTTGACCGTTCGTCTCGGAGTCACCTAGTGCAG", "binding signal": "21300 fluorescence intensity (a.u.)"}, {"sequence": "TTCTCTCGTCTCTTTTACCTCAATCTCACGTATATCTTGGCGGAGTCACCTAGTGCAG", "binding signal": "10100 fluorescence intensity (a.u.)"}, {"sequence": "GTCTCATCGTGATCGACGTTCACCTTTGATTCTATTTTAACGGAGTCACCTAGTGCAG", "binding signal": "8910 fluorescence intensity (a.u.)"}, {"sequence": "AAGCTCGTCCGCCACCGCGTCATCTCACAGGTTTACTATACGGAGTCACCTAGTGCAG", "binding signal": "12700 fluorescence intensity (a.u.)"}, {"sequence": "CATACTTTATTAATAACCGTGTCTAACCTTAAAACTTGTTCGGAGTCACCTAGTGCAG", "binding signal": "8610 fluorescence intensity (a.u.)"}, {"sequence": "ACACGCCCACGCCCACGCCCACGCCCACGGCCCACGGCGCCGGAGTCACCTAGTGCAG", "binding signal": "10600 fluorescence intensity (a.u.)"}, {"sequence": "TCCCTAAAATTTTTCACCCTTTCACATTAAACGTTTAACACGGAGTCACCTAGTGCAG", "binding signal": "11400 fluorescence intensity (a.u.)"}, {"sequence": "CCACTTTTTTAGCATCAAATTCGCATATCTTGACTTTTTTCGGAGTCACCTAGTGCAG", "binding signal": "8700 fluorescence intensity (a.u.)"}, {"sequence": "CCGATCTCCACCACCACCACCACCACGCGGGCGCGCGCACCGGAGTCACCTAGTGCAG", "binding signal": "8080 fluorescence intensity (a.u.)"}, {"sequence": "CATCGAAGTTTCTTTTTCAGCTTTTAATTTTCGATCGCTACGGAGTCACCTAGTGCAG", "binding signal": "8160 fluorescence intensity (a.u.)"}, {"sequence": "GCCACACTCCACCCAACCACCGGTCGCCGCCGGCGAGATGCGGAGTCACCTAGTGCAG", "binding signal": "8090 fluorescence intensity (a.u.)"}, {"sequence": "TACTAATTCGGCGTACATTCATTGACACACTTAAATTTTACGGAGTCACCTAGTGCAG", "binding signal": "8910 fluorescence intensity (a.u.)"}, {"sequence": "GCTCTCGTTTCCTCCGATCGACTAGCCGGCGTTGGAAGCCCGGAGTCACCTAGTGCAG", "binding signal": "8260 fluorescence intensity (a.u.)"}, {"sequence": "AAGTGTTTCCCTGGCCTCACCTTTTCTTTTAGCTACAGTACGGAGTCACCTAGTGCAG", "binding signal": "10300 fluorescence intensity (a.u.)"}]}]}
